Measurements from patent publication US20220389094A1.
Results are given in words; binding and its absence hold for the method and conditions named. Some entries that bind do so weakly or less than the wild type.

Amino acid sequences for entries named in this document (tags omitted). Residues count along the entry.
UniProt Q01973, residues 30-403: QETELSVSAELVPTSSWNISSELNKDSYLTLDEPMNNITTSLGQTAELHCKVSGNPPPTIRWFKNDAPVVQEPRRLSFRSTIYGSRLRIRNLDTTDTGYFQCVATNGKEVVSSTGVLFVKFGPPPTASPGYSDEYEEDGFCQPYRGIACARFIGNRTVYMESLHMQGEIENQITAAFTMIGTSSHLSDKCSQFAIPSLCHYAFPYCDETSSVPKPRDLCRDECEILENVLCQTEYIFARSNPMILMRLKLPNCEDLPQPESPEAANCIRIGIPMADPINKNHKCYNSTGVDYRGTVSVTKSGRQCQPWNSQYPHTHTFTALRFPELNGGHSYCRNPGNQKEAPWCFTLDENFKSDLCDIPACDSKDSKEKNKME

B1: human anti-ROR1 ScFv binder ScFv4 (scFv, not shown: small tags and cut ends)
scFv: QVQLQESGPGLVKPSETLSLTCTVSGGSISSSSYYWGWIRQPPGKGLEWIGSIYYSGSTYYNPSLKSRVTIPVDTSKNQFSLKLSSVTAADTAVYYCARHLGGDAFDIWGQGTTVTVSSGGGGSGGGGSGGGGSLPVLTQPPSVSVAPGQTARITCGGNNIGSKSVHWYQQKPGQAPVLVVYDDSDRPSGIPERFSGSNSGNTATLTISGTQAMDEADYFCQSYDSSNPVVFGGGTQLTVL
B2: human anti-ROR1 ScFv binder ScFv9 (scFv, not shown: small tags and cut ends)
scFv: QAAQVQLQQSGAEVKKPGSSVKVSCKASGGTFSSYAISWVRQAPGQGLEWMGWINPNSGGTNYAQRFQGRVTMTRDTSISTAYMELSRLRSDDTAVYYCASYNDAFDIWGQGTLVTVSSGGGGSGGGGSGGGGSNFMLTQPHSVSESPGKTVTISCTRSSGSIASNYVQWYQQRPGSAPTIVIYEDDQRPSGVPDRFSGSIDTSSNSASLTISGLQSEDEADYYCQSYEPGNGVFGGGTKVTVL

Target: recombinant human ROR1 (human) (UniProt Q01973)
Experiment: phage display panning and ELISA on coated recombinant human ROR1

Binder | binding
B1 | binds
B2 | binds
